Reference: US6867320B2, “Substituted phenylalkanoic acid derivatives and use thereof” (Asahi Kasei Pharma Corporation, priority 2002, dated 2005)
Some entries share one result that the patent states for a list of compounds.

Assays:
[1] = tested on: LTB4 production from IgE-stimulated RBL-2H3 cells; assay: Suppressing action on LTB4 production from IgE-stimulated RBL-2H3 cells; type: cell-based, rat; conditions: 0.4 μM; IgE/DNP-BSA stimulated RBL-2H3 cells
Source text: (§1) 2. Suppressing Action on PGD2 and LTB4 Production from IgE-Stimulated RBL-2H3 Cells
(§2) Suppressing action on PGD2 and LTB4 production caused by IgE as an allergic stimulant was investigated by the following method. Cells of RBL-2H3, which is a rat mastocytoma cell line (purchased from ATCC), were suspended in DEMEM medium (GIBCO) containing 10% fetal bovine serum (BioFluid), inoculated to each well of 48-well culture plate at a density of 2×10^4 cells/well and cultured overnight. Then, IgE antiserum directed to dinitrophenylated BSA (henceforth DNP-BSA) was further added to each well, and the cells were cultured for 30 minutes. Then, the medium was changed to DEMEM medium containing 0.5% fetal bovine serum, a test compound was added with each well, and DNP-BSA was further added at a final concentration of 100 ng/ml as a stimulant. Ten minutes after the stimulant was added, the culture supernatant was collected, and the PGD2 concentration and LTB4 concentration in the culture supernatant were measured by using EIA kit (CAYMAN). By using a well which was not added with the stimulant as a negative control and a well which was added only with the stimulant as a positive control, suppressing ratios on mediator production were calculated from the production amounts of the mediators in the well added with the test compound using the following equation. PGD2 or LTB4 production suppression ratio=[1−(C−B)/(A−B)]×100 • A: PGD2 or LTB4 production amount of positive control • B: PGD2 or LTB4 production amount of negative control • C: PGD2 or LTB4 production amount in well added with test compound
(§3) Further, as control compounds for comparison, reference compound (1), 3-(2-cyclohexylmethyloxy-1,1′-biphenyl-5-yl)propionic acid described in WO99/19291, reference compounds (2) and (3), [2-(5,6,7,8-tetrahydro-5,5,8,8-tetramethyl-2-naphthalenyl)methyloxy-1,1′-biphenyl-5-yl]carboxylic acid [reference compound (2)] and 3-[3′-carboxy-2-(5,6,7,8-tetrahydro-5,5,8,8-tetramethyl-2naphthalenyl)methyloxy-1,1′-biphenyl-6-yl]propionic acid [reference compound (3)] described in U.S. Pat. No. 5,391,817 and Japanese Patent Unexamined Publication (Kokai) No. 7-22399, respectively, were used, and activities thereof were similarly measured.

[2] = tested on: PGE2 production from IL-1β-stimulated MG-63 cells; assay: Suppressing action on PGE2 production from IL-1β-stimulated MG-63 cells; type: cell-based, human; conditions: 0.4 μM, IL-1β 1 ng/ml, 18 hours
Source text: 1. Suppressing Action on PGE2 Production from IL-1β-Stimulated MG-63 Cells (1) Method for Measurement
An action of suppressing PGE2 production caused by interleukin (IL) 1β as an inflammatory stimulant was studied by the following method. Cells of MG-63, which is a human osteosarcoma cell line (purchased from Dainippon Pharmaceutical), were suspended in EMEM medium (GIBCO) containing 10% fetal bovine serum (BioFluid), and then inoculated to each well of 96-well culture plate at a density of 2×10^4 cells/well and cultured overnight. The medium was changed to EMEM medium containing 0.5% fetal bovine serum, and then a test compound was added with each well. Human interleukin-1β (ENDOGEN) was further added as an inflammatory stimulant at a final concentration of 1 ng/ml. The cells were further cultured for 18 hours. The culture supernatant was collected, and the PGE2 concentration in the culture supernatant was measured by using EIA kit (CAYMAN). By using a well which was not added with the stimulant as a negative control and a well which was added only with the stimulant as a positive control, suppression ratios on PGE2 production were calculated from produced amounts of PGE2 in the well added with the test compound using the following equation. PGE2 production suppression ratio=[1−(C−B)/(A−B)]×100 • A: PGE2 production amount of positive control • B: PGE2 production amount of negative control • C: PGE2 production amount in well added with test compound

[3] = tested on: PGD2 production from IgE-stimulated RBL-2H3 cells; assay: Suppressing action on PGD2 production from IgE-stimulated RBL-2H3 cells; type: cell-based, rat; conditions: 0.4 μM; IgE/DNP-BSA stimulated RBL-2H3 cells
Source text: as §1, §2, §3

O=C(O)CCc1ccc(OC2Cc3ccccc3C2)c(-c2ccc3[nH]ncc3c2)c1 [Compound 465]
≥ 50%: LTB4 production suppression ratio [1] | PGE2 production suppression ratio [2] | PGD2 production suppression ratio [3]

Cn1ncc2cc(-c3cc(CCC(=O)O)ccc3OC3Cc4ccccc4C3)ccc21 [Compound 467]
≥ 50%: LTB4 production suppression ratio [1] | PGE2 production suppression ratio [2] | PGD2 production suppression ratio [3]

CCn1ncc2cc(-c3cc(CCC(=O)O)ccc3OC3Cc4ccccc4C3)ccc21 [Compound 469]
≥ 50%: LTB4 production suppression ratio [1] | PGE2 production suppression ratio [2] | PGD2 production suppression ratio [3]

O=C(O)CCc1ccc(OCc2ccc(F)cc2)c(-c2ccc3[nH]ncc3c2)c1 [Compound 471]
≥ 50%: LTB4 production suppression ratio [1] | PGE2 production suppression ratio [2] | PGD2 production suppression ratio [3]

Cn1ncc2cc(-c3cc(CCC(=O)O)ccc3OCc3ccc(F)cc3)ccc21 [Compound 473]
≥ 50%: LTB4 production suppression ratio [1] | PGE2 production suppression ratio [2] | PGD2 production suppression ratio [3]

O=C(O)CCc1ccc(OCc2ccc(C(F)(F)F)cc2)c(-c2ccc3[nH]ncc3c2)c1 [Compound 475]
≥ 50%: LTB4 production suppression ratio [1] | PGE2 production suppression ratio [2] | PGD2 production suppression ratio [3]

O=C(O)CCc1ccc(OCCc2ccccc2F)c(-c2ccc3[nH]ncc3c2)c1 [Compound 477]
≥ 50%: LTB4 production suppression ratio [1] | PGE2 production suppression ratio [2] | PGD2 production suppression ratio [3]

Cn1ncc2cc(-c3cc(CCC(=O)O)ccc3OCCc3ccccc3F)ccc21 [Compound 479]
≥ 50%: LTB4 production suppression ratio [1] | PGE2 production suppression ratio [2] | PGD2 production suppression ratio [3]

O=C(O)CCc1ccc(OC2CCCC2)c(-c2ccc3sncc3c2)c1 [Compound 491]
≥ 50%: LTB4 production suppression ratio [1] | PGE2 production suppression ratio [2] | PGD2 production suppression ratio [3]

O=C(O)CCc1ccc(OC2CCCC2)c(-c2ccc3nscc3c2)c1 [Compound 493]
≥ 50%: LTB4 production suppression ratio [1] | PGE2 production suppression ratio [2] | PGD2 production suppression ratio [3]

O=C(O)CCc1ccc(OC2CCCCC2)c(-c2ccc3cnccc3c2)c1 [Compound 501]
≥ 50%: LTB4 production suppression ratio [1] | PGE2 production suppression ratio [2] | PGD2 production suppression ratio [3]

O=C(O)CCc1ccc(OC2CCCC2)c(-c2ccc3cnccc3c2)c1 [Compound 503]
≥ 50%: LTB4 production suppression ratio [1] | PGE2 production suppression ratio [2] | PGD2 production suppression ratio [3]

CC(Oc1ccc(CCC(=O)O)cc1-c1ccc2[nH]ncc2c1)c1ccccc1 (stereo not drawn) [Compound 511]
≥ 50%: LTB4 production suppression ratio [1] | PGE2 production suppression ratio [2] | PGD2 production suppression ratio [3]

CC(Oc1ccc(CCC(=O)O)cc1-c1ccc2c(cnn2C)c1)c1ccccc1 (stereo not drawn) [Compound 513]
≥ 50%: LTB4 production suppression ratio [1] | PGE2 production suppression ratio [2] | PGD2 production suppression ratio [3]

Cn1ncc2cc(-c3cc(CCC(=O)O)ccc3OCCc3ccc(F)cc3)ccc21 [Compound 523]
≥ 50%: LTB4 production suppression ratio [1] | PGE2 production suppression ratio [2] | PGD2 production suppression ratio [3]

CC(C)COc1ccc(CCC(=O)O)cc1-c1ccc2[nH]ncc2c1 [Compound 525]
≥ 50%: LTB4 production suppression ratio [1] | PGE2 production suppression ratio [2] | PGD2 production suppression ratio [3]

CC(C)COc1ccc(CCC(=O)O)cc1-c1ccc2c(cnn2C)c1 [Compound 527]
≥ 50%: LTB4 production suppression ratio [1] | PGE2 production suppression ratio [2] | PGD2 production suppression ratio [3]

CN(C)c1ccc(CCOc2ccc(CCC(=O)O)cc2-c2ccc3c(cnn3C)c2)cc1 [Compound 529]
≥ 50%: LTB4 production suppression ratio [1] | PGE2 production suppression ratio [2] | PGD2 production suppression ratio [3]

CCCCOc1ccc(CCC(=O)O)cc1-c1ccc2c(cnn2C)c1 [Compound 531]
≥ 50%: LTB4 production suppression ratio [1] | PGE2 production suppression ratio [2] | PGD2 production suppression ratio [3]

Cn1ncc2cc(-c3cc(CCC(=O)O)ccc3OCc3ccccc3F)ccc21 [Compound 533]
≥ 50%: LTB4 production suppression ratio [1] | PGE2 production suppression ratio [2] | PGD2 production suppression ratio [3]

Cn1ncc2cc(-c3cc(CCC(=O)O)ccc3OCc3ccc(C(F)(F)F)cc3)ccc21 [Compound 535]
≥ 50%: LTB4 production suppression ratio [1] | PGE2 production suppression ratio [2] | PGD2 production suppression ratio [3]

CC(Oc1c(N)cc(CCC(=O)O)cc1-c1ccc2[nH]ncc2c1)c1ccccc1 (stereo not drawn) [Compound 549]
≥ 50%: LTB4 production suppression ratio [1] | PGE2 production suppression ratio [2] | PGD2 production suppression ratio [3]

CC(Oc1c(N)cc(CCC(=O)O)cc1-c1ccc2c(cnn2C)c1)c1ccccc1 (stereo not drawn) [Compound 552]
≥ 50%: LTB4 production suppression ratio [1] | PGE2 production suppression ratio [2] | PGD2 production suppression ratio [3]

Cn1ncc2cc(-c3cc(CCC(=O)O)cc(N)c3OCCc3ccc(F)cc3)ccc21 [Compound 558]
≥ 50%: LTB4 production suppression ratio [1] | PGE2 production suppression ratio [2] | PGD2 production suppression ratio [3]

CN(C)c1ccc(CCOc2c(N)cc(CCC(=O)O)cc2-c2ccc3c(cnn3C)c2)cc1 [Compound 561]
≥ 50%: LTB4 production suppression ratio [1] | PGE2 production suppression ratio [2] | PGD2 production suppression ratio [3]

CC(C)COc1c(N)cc(CCC(=O)O)cc1-c1ccc2c(cnn2C)c1 [Compound 564]
≥ 50%: LTB4 production suppression ratio [1] | PGE2 production suppression ratio [2] | PGD2 production suppression ratio [3]

CC(C)COc1ccc(CCC(=O)O)cc1-c1ccc2[nH]ccc2c1 [Compound 589]
≥ 50%: LTB4 production suppression ratio [1] | PGE2 production suppression ratio [2] | PGD2 production suppression ratio [3]

CC(C)CCOc1ccc(CCC(=O)O)cc1-c1ccc2[nH]ccc2c1 [Compound 590]
≥ 50%: LTB4 production suppression ratio [1] | PGE2 production suppression ratio [2] | PGD2 production suppression ratio [3]

CC1CCCCC1Oc1ccc(CCC(=O)O)cc1-c1ccc2[nH]ccc2c1 (stereo not drawn) [Compound 593]
≥ 50%: LTB4 production suppression ratio [1] | PGE2 production suppression ratio [2] | PGD2 production suppression ratio [3]

CC1CCC(Oc2ccc(CCC(=O)O)cc2-c2ccc3[nH]ccc3c2)CC1 (stereo not drawn) [Compound 594]
≥ 50%: LTB4 production suppression ratio [1] | PGE2 production suppression ratio [2] | PGD2 production suppression ratio [3]

CC[C@H](Oc1ccc(CCC(=O)O)cc1-c1ccc2[nH]ccc2c1)c1ccccc1 [Compound 596]
≥ 50%: LTB4 production suppression ratio [1] | PGE2 production suppression ratio [2] | PGD2 production suppression ratio [3]

CC(C)C(Oc1ccc(CCC(=O)O)cc1-c1ccc2[nH]ccc2c1)c1ccccc1 (stereo not drawn) [Compound 598]
≥ 50%: LTB4 production suppression ratio [1] | PGE2 production suppression ratio [2] | PGD2 production suppression ratio [3]

O=C(O)CCc1ccc(OC2Cc3ccccc3C2)c(-c2ccc3[nH]ccc3c2)c1 [Compound 600]
≥ 50%: LTB4 production suppression ratio [1] | PGE2 production suppression ratio [2] | PGD2 production suppression ratio [3]

O=C(O)CCc1ccc(OC2CCc3ccccc3C2)c(-c2ccc3[nH]ccc3c2)c1 (stereo not drawn) [Compound 602]
≥ 50%: LTB4 production suppression ratio [1] | PGE2 production suppression ratio [2] | PGD2 production suppression ratio [3]
